Assay results from PubChem BioAssay AID248 (DTP/NCI, 2004).
The list does not hold the whole screen: it gathers tests that were run many times, whatever their T/C, doses with no T/C, and many T/C values between a quarter and a half above the control. Other doses and runs of a compound stand elsewhere. T/C: endpoint of the treated group in % of that of the vehicle group. Some doses have a count of surviving animals in place of a T/C: the source holds a T/C of zero for them, seemingly a mark for toxic or unscored doses. Some survivor counts are full or nearly so, which does not show that the dose was tolerated: survival well below the control is almost never listed, so the zero probably covers shortened survival too. Counts of survivors are from the toxicity check (mostly the fifth day) where no day follows; animals may have died later. Schedule codes are those of the source, read here as Q, the interval in days (D) or hours (H), X, the number of doses. Some schedule codes hold Z or #, which are not explained here. Some entries hold several experiments; their values stand side by side, smallest first. For survival time, this PubChem deposit counts one and a half times the control or more as active, and values a quarter to a half above the control carry no call in these data; other NCI protocols may use other cut-offs. Some T/C values are followed by the survivors on the day toxicity was checked, most often the fifth; where none is given, no animal had died by that day.

System: L1210 leukemia ip in BDF1 mice, survival T/C
Experiment: NCI In Vivo Anticancer Drug Screen. Data for tumor model L1210 Leukemia (intraperitoneal) in B6D2F1 (BDF1) mice
Settings: T/C endpoint: mean survival time, higher T/C = longer survival
[1] = dose: 200.0 mg/kg/injection, schedule: Q04DX002 (ip), vehicle: Klucel (hydroxypropylcellulose) (HPC)
[2] = dose: 400.0 mg/kg/injection, schedule: Q04DX002 (ip), vehicle: Klucel (hydroxypropylcellulose) (HPC)
[3] = dose: 400.0 mg/kg/injection, schedule: Q04DX003 (ip), vehicle: saline with Tween-80
[4] = dose: 150.0 mg/kg/injection, schedule: Q01DX001 (ip), vehicle: saline
[5] = dose: 300.0 mg/kg/injection, schedule: Q01DX001 (ip), vehicle: saline
[6] = dose: 100.0 mg/kg/injection, schedule: Q04DX003 (ip), vehicle: Klucel (hydroxypropylcellulose) (HPC)
[7] = dose: 200.0 mg/kg/injection, schedule: Q04DX003 (ip), vehicle: Klucel (hydroxypropylcellulose) (HPC)
[8] = dose: 400.0 mg/kg/injection, schedule: Q04DX003 (ip), vehicle: Klucel (hydroxypropylcellulose) (HPC)
[9] = dose: 100.0 mg/kg/injection, schedule: Q01DX009 (ip), vehicle: saline
[10] = dose: 200.0 mg/kg/injection, schedule: Q01DX009 (ip), vehicle: saline
[11] = dose: 400.0 mg/kg/injection, schedule: Q01DX001 (ip), vehicle: saline
[12] = dose: 400.0 mg/kg/injection, schedule: Q01DX009 (ip), vehicle: saline
[13] = dose: 200.0 mg/kg/injection, schedule: Q01DX001 (ip), vehicle: saline
[14] = dose: 100.0 mg/kg/injection, schedule: Q01DX009 (ip), vehicle: saline with Tween-80
[15] = dose: 400.0 mg/kg/injection, schedule: Q01DX009 (ip), vehicle: saline with Tween-80
[16] = dose: 100.0 mg/kg/injection, schedule: Q04DX003 (ip), vehicle: saline
[17] = dose: 200.0 mg/kg/injection, schedule: Q04DX003 (ip), vehicle: saline
[18] = dose: 400.0 mg/kg/injection, schedule: Q04DX003 (ip), vehicle: saline

**Q.** Which survivor count (dose: 5.0 mg/kg/injection, schedule: Q01DX009 (ip), vehicle: saline with Tween-80) does the source give for `O=C(C=C(C(F)(F)F)C(F)(F)F)c1ccc(Cl)c([N+](=O)[O-])c1` here?
**A.** 2 of 6

**Q.** What about the survivor count (dose: 10.0 mg/kg/injection, schedule: Q01DX009 (ip), vehicle: saline with Tween-80) of the same compound?
**A.** 3 of 6 and 4 of 6

**Q.** What about the survivor count (dose: 20.0 mg/kg/injection, schedule: Q01DX009 (ip), vehicle: saline with Tween-80) of the same compound?
**A.** 1 of 6

**Q.** And the survivor count (dose: 40.0 mg/kg/injection, schedule: Q01DX009 (ip), vehicle: saline with Tween-80)?
**A.** 0 of 6

**Q.** What about the survivor count (dose: 50.0 mg/kg/injection, schedule: Q01DX001 (ip), vehicle: saline with Tween-80) of the same compound?
**A.** 2 of 6

**Q.** What about the survivor count (dose: 75.0 mg/kg/injection, schedule: Q01DX009 (ip), vehicle: saline with Tween-80) of the same compound?
**A.** 1 of 6

**Q.** And the survivor count (dose: 100.0 mg/kg/injection, schedule: Q01DX001 (ip), vehicle: saline with Tween-80)?
**A.** 0 of 6

**Q.** And the survivor count (dose: 150.0 mg/kg/injection, schedule: Q01DX009 (ip), vehicle: saline with Tween-80)?
**A.** 0 of 6

**Q.** What about the survivor count (dose: 200.0 mg/kg/injection, schedule: Q01DX001 (ip), vehicle: saline with Tween-80) of the same compound?
**A.** 0 of 6

**Q.** What about the survivor count (dose: 300.0 mg/kg/injection, schedule: Q01DX009 (ip), vehicle: saline with Tween-80) of the same compound?
**A.** 0 of 6

**Q.** And the survivor count (dose: 400.0 mg/kg/injection, schedule: Q01DX001 (ip), vehicle: saline with Tween-80)?
**A.** 0 of 6

**Q.** With `CC(C)N=C(N)CSS(=O)(=O)O` as the compound, how does the survivor count [1] read?
**A.** 1 of 3

**Q.** What about the survivor count [2] of the same compound?
**A.** 0 of 3

**Q.** `O=C1c2ccccc2S(=O)N1OCc1ccccc1` (centres undefined) was tested. Which survivor count [2] did it give?
**A.** 1 of 3

**Q.** `CCN(CC)c1ccc(NC(=O)NC(C)C)cc1` was tested. Which survivor count [3] did it give?
**A.** 1 of 6

**Q.** `CC12CCC(C/C1=N\N=C(N)N)C2(C)C` (centres undefined) was tested. Which survivor count [4] did it give?
**A.** 1 of 6

**Q.** And the survivor count [5]?
**A.** 0 of 6

**Q.** Which survivor count (dose: 2.5 mg/kg/injection, schedule: Q04DX003 (ip), vehicle: Klucel (hydroxypropylcellulose) (HPC)) does the source give for `CC1CC[N+](C)(CC(=O)c2ccc(-c3ccc(C(=O)C[N+]4(C)CCC(C)CC4)cc3)cc2)CC1` (centres undefined) here?
**A.** 0 of 6

**Q.** And the survivor count (dose: 5.0 mg/kg/injection, schedule: Q04DX003 (ip), vehicle: Klucel (hydroxypropylcellulose) (HPC))?
**A.** 0 of 6

**Q.** What about the survivor count (dose: 10.0 mg/kg/injection, schedule: Q04DX003 (ip), vehicle: Klucel (hydroxypropylcellulose) (HPC)) of the same compound?
**A.** 0 of 6

**Q.** What about the survivor count (dose: 20.0 mg/kg/injection, schedule: Q04DX003 (ip), vehicle: Klucel (hydroxypropylcellulose) (HPC)) of the same compound?
**A.** 0 of 6

**Q.** And the survivor count (dose: 40.0 mg/kg/injection, schedule: Q04DX003 (ip), vehicle: Klucel (hydroxypropylcellulose) (HPC))?
**A.** 0 of 6

**Q.** And the survivor count [6]?
**A.** 0 of 6

**Q.** And the survivor count [7]?
**A.** 0 of 6

**Q.** What about the survivor count [8] of the same compound?
**A.** 0 of 6

**Q.** Which results are given for `CC1(C)N=C(N)N=C(N)N1c1cccc(C(=O)Nc2cccc(S(=O)(=O)F)c2)c1`?
**A.** survivor count [9]: 3 of 6; survivor count [10]: 3 of 6; survivor count (dose: 300.0 mg/kg/injection, schedule: Q01DX009 (ip), vehicle: saline): 0 of 6; survivor count [11]: 0 of 6; survivor count [12]: 0 of 6

**Q.** For `NC(=S)c1[nH]cnc1N`, which survivor count (dose: 90.0 mg/kg/injection, schedule: Q01DX015 (ip), vehicle: saline) is on record?
**A.** 3 of 6

**Q.** What about the survivor count [13] of the same compound?
**A.** 0 of 6

**Q.** And the survivor count [11]?
**A.** 0 of 6

**Q.** `Cc1csc2[nH]c(=O)[nH]c(=O)c12` was tested. Which survivor count (dose: 200.0 mg/kg/injection, schedule: Q01DX009 (ip), vehicle: water) did it give?
**A.** 3 of 6

**Q.** `CC1=CC(=O)C=CC1=O` was tested. Which survivor count (dose: 10.0 mg/kg/injection, schedule: Q01DX001 (ip), vehicle: saline) did it give?
**A.** 2 of 4

**Q.** And the survivor count (dose: 20.0 mg/kg/injection, schedule: Q01DX001 (ip), vehicle: saline)?
**A.** 0 of 4

**Q.** And the survivor count (dose: 40.0 mg/kg/injection, schedule: Q01DX001 (ip), vehicle: saline)?
**A.** 0 of 4

**Q.** What about the survivor count (dose: 50.0 mg/kg/injection, schedule: Q01DX001 (ip), vehicle: saline) of the same compound?
**A.** 0 of 4

**Q.** And the survivor count (dose: 80.0 mg/kg/injection, schedule: Q01DX001 (ip), vehicle: saline)?
**A.** 0 of 4

**Q.** What about the survivor count (dose: 100.0 mg/kg/injection, schedule: Q01DX001 (ip), vehicle: saline) of the same compound?
**A.** 0 of 4

**Q.** And the survivor count [13]?
**A.** 0 of 4

**Q.** And the survivor count [11]?
**A.** 0 of 4

**Q.** For `CCOC(=O)N1C(=O)C2C3CCC(O3)C2C1=O` (centres undefined), which survivor count [14] is on record?
**A.** 0 of 3

**Q.** With `NC(=S)N/N=C/c1cnccn1` as the compound, how does the T/C [14] read?
**A.** 143 % of control

**Q.** What about the survivor count [15] of the same compound?
**A.** 1 of 6

**Q.** How did the survivor count [6] turn out when `Cn1c(N)c(C=O)c(=O)n(C)c1=O` was run?
**A.** 0 of 6

**Q.** And the survivor count [7]?
**A.** 0 of 6

**Q.** And the survivor count [8]?
**A.** 0 of 6

**Q.** What does the source list for `O=C(CCCCCCCC(=O)Nc1cc(C2=NCCN2)cc(C2=NCCN2)c1)Nc1cc(C2=NCCN2)cc(C2=NCCN2)c1`?
**A.** survivor count (dose: 25.0 mg/kg/injection, schedule: Q01DX Z (ip), vehicle: carboxymethylcellulose (CMC)): 1 of 6; survivor count (dose: 50.0 mg/kg/injection, schedule: Q01DX Z (ip), vehicle: carboxymethylcellulose (CMC)): 0 of 6; survivor count (dose: 100.0 mg/kg/injection, schedule: Q01DX Z (ip), vehicle: carboxymethylcellulose (CMC)): 0 of 6

**Q.** How did the survivor count (dose: 60.0 mg/kg/injection, schedule: Q01DX001 (ip), vehicle: saline) turn out when `CCOP(=O)(OCC)C(C)C#N` (centres undefined) was run?
**A.** 2 of 6

**Q.** And the survivor count (dose: 75.0 mg/kg/injection, schedule: Q01DX001 (ip), vehicle: saline)?
**A.** 1 of 6

**Q.** And the survivor count [4]?
**A.** 1 of 6

**Q.** And the survivor count [5]?
**A.** 0 of 6

**Q.** For `Nc1ccc(C(=O)CC(O)(C(F)(F)F)C(F)(F)F)cc1`, which survivor count [15] is on record?
**A.** 3 of 6

**Q.** Which survivor count (dose: 25.0 mg/kg/injection, schedule: Q04DX003 (ip), vehicle: saline) does the source give for `NCC(O)COc1ccccc1N` (centres undefined) here?
**A.** 2 of 6

**Q.** And the survivor count (dose: 50.0 mg/kg/injection, schedule: Q04DX003 (ip), vehicle: saline)?
**A.** 1 of 6

**Q.** And the survivor count [16]?
**A.** 0 of 6

**Q.** What about the survivor count [17] of the same compound?
**A.** 0 of 6

**Q.** And the survivor count [18]?
**A.** 0 of 6

**Q.** What does the source list for `CCN(CC)CCOc1ccccc1C(=O)CCc1ccccc1`?
**A.** survivor count [16]: 2 of 6; survivor count [17]: 0 of 6; survivor count [18]: 0 of 6

**Q.** How did the survivor count (dose: 150.0 mg/kg/injection, schedule: Q01DX001 (ip), vehicle: acetone) turn out when `O=c1oc2ccc([N+](=O)[O-])cc2o1` was run?
**A.** 2 of 6

**Q.** What about the survivor count (dose: 300.0 mg/kg/injection, schedule: Q01DX001 (ip), vehicle: acetone) of the same compound?
**A.** 0 of 6

**Q.** What does the source list for `C/C=C/CC1(C(C)C)C(=O)NC(=S)NC1=O`?
**A.** survivor count [4]: 0 of 6; survivor count [5]: 0 of 6

**Q.** `COC(=O)C1CC(C2c3ccccc3-c3ccccc32)CCC1N` (centres undefined) was tested. Which survivor count (dose: 100.0 mg/kg/injection, schedule: Q04DX003 (ip), vehicle: saline with Tween-80) did it give?
**A.** 6 of 6

**Q.** What about the survivor count [3] of the same compound?
**A.** 1 of 6

**Q.** How did the survivor count (dose: 100.0 mg/kg/injection, schedule: Q04DX002 (ip), vehicle: Klucel (hydroxypropylcellulose) (HPC)) turn out when `O=C(O)c1cccc(Cl)c1.[Ni]` was run?
**A.** 0 of 3

**Q.** And the survivor count [1]?
**A.** 0 of 3

**Q.** And the survivor count [2]?
**A.** 0 of 3

**Q.** `CCC(=O)Nc1cc(C)c(C)cc1C` was tested. Which survivor count (dose: 400.0 mg/kg/injection, schedule: Q01DX009 (ip), vehicle: Klucel (hydroxypropylcellulose) (HPC)) did it give?
**A.** 2 of 6

**Q.** How did the T/C (dose: 50.0 mg/kg/injection, schedule: Q01DX009 (ip), vehicle: saline) turn out when `OC(CF)CF` was run?
**A.** 141 % of control [5 of 6 alive]

**Q.** What about the survivor count [9] of the same compound?
**A.** 1 of 6

**Q.** And the survivor count [10]?
**A.** 0 of 6

**Q.** What about the survivor count [12] of the same compound?
**A.** 0 of 6

**Q.** Which survivor count (dose: 200.0 mg/kg/injection, schedule: Q01DX009 (ip), vehicle: Klucel (hydroxypropylcellulose) (HPC)) does the source give for `O=C1CCCc2c1ccc1ccccc21` here?
**A.** 5 of 6
